# Assay results reported in PubChem BioAssay AID485353 (National Center for Advancing Translational Sciences (NCATS), 2010).
# Hit rate of the full screen: of about 330,000 compounds, about 610 (0.18%) were called active. Inconclusive results, whose numbers are uncertain, are shown with a selection of clear calls. Calls come from the whole dose curve. A potency beside an inconclusive call is a rough fit, not a confirmed value.
# Assay: qHTS of Yeast-based Assay for SARS-CoV PLP; note: nearly all actives have a fitted effect of over 55% in size
# Details: S. cerevisiae expressing SARS-CoV PLpro; Potency: growth rescue; series mostly up to 32.9 µM
# Potency is the fitted concentration of half-maximal effect.
row,SMILES,Potency
1,O=C1C2CC=CCC2C(=O)N1CC1CCCO1 (configuration not stated),"inconclusive: 20 µM [activator, single point]"
2,Cc1ccc(C2(C)NC(=O)N(CC(=O)NCc3cccs3)C2=O)cc1 (configuration not stated),"inconclusive: 20 µM [activator, single point]"
3,S=c1[nH]nc(-c2ccc3ccccc3n2)n1-c1ccccc1Cl,"inconclusive: 1 µM [activator, full curve, poor fit]"
4,CCOC(=O)C1=CN(Cc2cccc(-c3ccc(F)cc3)c2)S(=O)(=O)N(C)C1C (configuration not stated),inactive
5,COc1ccc(OC)c(S(=O)(=O)NC(C)CCc2ccccc2)c1 (configuration not stated),"inconclusive: 20 µM [activator, single point]"
6,CC(/C=C/c1ccccc1)=N\NC(N)=S,active: 12.6 µM
7,Cc1ccccc1N(CC(=O)NCc1ccc2c(c1)OCO2)C(=O)CCC(=O)Nc1ccccn1,"inconclusive: 4.47 µM [activator, single point]"
8,Cc1ccc(OCCn2cc(/C=N/NC(=O)c3ccncc3)c3ccccc32)cc1,"inconclusive: 8.91 µM [activator, partial curve]"
9,Cc1cc(OCC(=O)NC(C)(C)C)ccc1Cl,"inconclusive: 3.55 µM [activator, single point]"
10,CC1(C)OC(=O)C(=NNc2ccc(O)cc2)C(=O)O1,"inconclusive: 4.47 µM [activator, partial curve]"
11,O=C(Nc1cccc(NC(=O)c2ccco2)c1)c1cccc(Br)c1,inactive
12,CCOC(=O)N1CCN(c2ccc(S(=O)(=O)N(Cc3ccccc3)Cc3ccccc3)cn2)CC1,"inconclusive: 3.55 µM [activator, single point]"
13,O=C(Nc1cccc(-c2cn3ccccc3n2)c1)c1cccc(Cl)c1,inactive
14,CN1C(C(=O)Nc2cccc(O)c2)=CC(c2ccco2)=NS1(=O)=O,inactive
15,CSCCC(NC(=O)COc1ccccc1)C(=O)N1CCN(C(C)=O)CC1 (configuration not stated),"inconclusive: 20 µM [activator, single point]"
16,COc1ccc(NCCc2ccccn2)cc1,"inconclusive: 12.6 µM [activator, single point]"
17,Cc1ccc2cc3cc(C(=O)NC4CC4)oc3nc2c1,inactive
18,NS(=O)(=O)c1ccc(CCNC2CC(=O)N(Cc3ccccc3)C2=O)cc1 (configuration not stated),"inconclusive: 4.47 µM [activator, single point]"
19,O=C(CCc1nc2ccccc2c(=O)[nH]1)N1CCN(S(=O)(=O)c2ccccc2Br)CC1,"inconclusive: 2.51 µM [activator, single point]"
20,COc1ccc(S(=O)(=O)Nc2cccc3c2O[C@H](CN(C)Cc2ccc(Cl)c(Cl)c2)[C@@H](C)CN([C@H](C)CO)C3=O)cc1,"inconclusive: 17.8 µM [activator, single point]"
21,CCOc1nc2cnccc2n(CC(=O)Nc2cccc(C)c2)c1=O,"inconclusive: 14.1 µM [activator, single point]"
22,Cc1cccc(NC(=O)Cn2cnc3c(oc4nc5c(cc43)COC(C)(C)C5)c2=O)c1,active: 12.6 µM
23,CCCCC(=O)NC(c1ccccc1OC)c1ccc2cccnc2c1O (configuration not stated),"inconclusive: 1.58 µM [activator, partial curve]"
24,COc1ccc(-c2c(C(F)(F)F)oc3cc(OCC(=O)Nc4ccccc4C(F)(F)F)ccc3c2=O)cc1OC,"inconclusive: 0.708 µM [activator, full curve, poor fit]"

row,SMILES,Potency
1,CN(C)CCNC(=O)Cn1ccc2cc(S(=O)(=O)N3CCCCCC3)ccc21,"inconclusive: 20 µM [activator, single point]"
2,Cc1ccc(C(=O)NCC(c2ccc(F)cc2)N2CCOCC2)s1 (configuration not stated),inactive
3,COc1ccc(CNC(=S)NC2CCCC2)cc1,"inconclusive: 20 µM [activator, single point]"
4,COc1ccc(NC2=CC(c3ccc(OC)c(OC)c3)N(c3ccc(OC)cc3)C2=O)cc1 (configuration not stated),"inconclusive: 7.94 µM [activator, partial curve]"
5,CC(Sc1ccccc1)C(=O)NN=C1CCCCCCC1 (configuration not stated),"inconclusive: 22.4 µM [activator, single point]"
6,COc1cccc(/C=N/NC(=O)Cn2ccnc2C)c1,"inconclusive: 11.2 µM [activator, single point]"
7,CCCCN(C(=O)C(C)Oc1ccc(Br)cc1)c1c(N)n(CC(C)C)c(=O)[nH]c1=O (configuration not stated),inactive
8,COc1ccc(/C=N/Nc2nonc2N)cc1OC,"inconclusive: 20 µM [activator, single point]"
9,CC(=O)c1ccc(S(=O)(=O)N2CCCC(N(C)CCc3ccccc3)C2)cc1 (configuration not stated),"inconclusive: 4.47 µM [activator, single point]"
10,COc1cccc(/C=N/NC(=O)CCc2n[nH]c(=O)[nH]c2=O)c1O,"inconclusive: 22.4 µM [activator, partial curve]"
11,Nn1c(SCc2csc(-c3ccccc3)n2)nnc1-c1cccs1,"inconclusive: 3.98 µM [activator, single point]"
12,CCOC(=O)C(NC(=O)Nc1ccc(C(N)=O)cc1)(c1ccccc1)C(F)(F)F (configuration not stated),"inconclusive: 1 µM [activator, full curve, poor fit]"
13,O=C(CSc1nnc(-c2cccnc2)s1)Nc1ccccc1,"inconclusive: 17.8 µM [activator, single point]"
14,COc1ccc(/C=N/NC(=S)Nc2ccccc2[N+](=O)[O-])cc1O,"inconclusive: 20 µM [activator, single point]"
15,CCCCNC(=S)N/N=C/c1ccccc1F,active: 12.6 µM
16,O=C(COc1ccccc1)Nc1ccccc1N1CCCCC1,inactive
17,N=C(c1ccc([N+](=O)[O-])cc1)N1CCCCC1,inactive
18,COC(=O)c1nnn(CC(=O)NC(=O)Nc2ccc(F)cc2)c1C(=O)OC,"inconclusive: 2.82 µM [activator, partial curve, poor fit]"
19,CCOC(=O)c1sc(NC(=S)NC(=O)c2ccco2)nc1C,inactive
20,O=C(Nc1c2c(nn1-c1ccccc1)CS(=O)(=O)C2)c1ccco1,"inconclusive: 12.6 µM [activator, single point]"
21,Cc1csc(NC(=O)c2cccc(Cn3nc(C)c(Br)c3C)c2)n1,inactive
22,COC(=O)CCCn1c(C)cc(C(=O)CCl)c1C,active: 11.2 µM
23,CCOc1ccc(CNc2ccc(S(N)(=O)=O)cc2)cc1,inactive
24,N#Cc1cc2c(nc1SCC(=O)Nc1ccc(Cl)cc1)C1CCN2CC1,"inconclusive: 0.398 µM [activator, full curve, poor fit]"

# Ordered by heavy-atom count (low to high): 3 of the compounds above
row,SMILES,Potency
15,CCCCNC(=S)N/N=C/c1ccccc1F,active: 12.6 µM
10,COc1cccc(/C=N/NC(=O)CCc2n[nH]c(=O)[nH]c2=O)c1O,"inconclusive: 22.4 µM [activator, partial curve]"
4,COc1ccc(NC2=CC(c3ccc(OC)c(OC)c3)N(c3ccc(OC)cc3)C2=O)cc1 (configuration not stated),"inconclusive: 7.94 µM [activator, partial curve]"

# Later entries:

row,SMILES,Potency
1,COc1ccc(NC(=O)C2CSC3c4ccccc4C(=O)N23)cc1 (configuration not stated),"inconclusive: 3.55 µM [activator, single point]"
2,Cc1ccc(S(=O)(=O)N2CCN(C(C)C(=O)NCC(C)c3ccccc3)CC2)cc1 (configuration not stated),inactive
3,O=C1CSC(c2cn(-c3ccccc3)nc2-c2ccccc2)N1Cc1ccco1 (configuration not stated),"inconclusive: 0.891 µM [activator, partial curve]"
4,Nc1nnc(SCC(=O)OCc2ccc(F)cc2)s1,inactive
5,CCOc1cc(/C=N/NC(=O)c2cccnc2)ccc1OCC(=O)N1CCOCC1,"inconclusive: 20 µM [activator, single point]"
6,O=C(O)CCC(=O)Nc1ccc(N=Nc2ccccc2)cc1,inactive
7,COc1ccc(S(=O)Cc2ccc(C(=O)NCc3cccc(OC)c3)o2)cc1 (configuration not stated),"inconclusive: 3.16 µM [activator, single point]"
8,NC(=O)c1ccc(-n2nnnc2SCC(=O)Nc2ccccc2)cc1,inactive
9,CC1(C)CC(=O)C/C(=N\NC(=O)CCc2ccc(S(=O)(=O)N3CCOCC3)cc2)C1,inactive
10,Cc1cccc(C(=O)NCc2nnc3c4ccccc4c(-c4ccccc4)nn23)c1,"inconclusive: 0.501 µM [activator, full curve, poor fit]"
11,Cc1cccc(CCNCc2cc3cccc(C)c3[nH]c2=O)c1,"inconclusive: 3.98 µM [activator, single point]"
12,CC(C)(C)NC(=O)C(c1ccc(Cl)cc1)N(Cc1ccco1)C(=O)CCl (configuration not stated),inactive
13,Cc1cc(NS(=O)(=O)c2ccc(N3C(=O)C4C5C=CC(C5)C4C3=O)cc2)nc(C)n1 (configuration not stated),"inconclusive: 20 µM [activator, single point]"
14,CCOc1ccc(C(=O)O/N=C(\N)c2ccccn2)cc1OCC,inactive
15,CCCCc1ccc(NC(=O)C(C)CC)cc1 (configuration not stated),inactive
16,CC(C)N(C(=O)[C@H]1C[C@H](CC(=O)NCc2cccc(C(F)(F)F)c2)C(=O)N2CCc3c([nH]c4cc(CCC(=O)N(C)C)ccc34)[C@]12C)C(C)C,"inconclusive: 3.16 µM [activator, single point]"
17,CCC(=O)N1CCN(c2ccc(NC(=O)c3ccc(N4CCOCC4)c([N+](=O)[O-])c3)cc2)CC1,"inconclusive: 14.1 µM [activator, single point]"
18,O=C1c2ccccc2S(=O)(=O)N1Cc1cc(=O)n2ccsc2n1,"inconclusive: 4.47 µM [activator, partial curve]"
19,CC(C)OCCCNc1ncnc2c1[nH]c1ccccc12,inactive
20,Oc1c(C(Nc2cccc(C(F)(F)F)c2)c2ccncc2)ccc2cccnc12 (configuration not stated),"inconclusive: 3.55 µM [activator, partial curve]"
21,Cc1cc(/N=C/C=C2\N(C)c3ccccc3C2(C)C)n(CCC#N)n1,inactive
22,CN(CCOc1ccc(Cl)cc1)c1ccc(S(=O)(=O)N2CCCCC2)cn1,inactive
23,COc1ccc(Br)cc1CN(C)CC(=O)Nc1c(Cl)cccc1Cl,"inconclusive: 0.891 µM [activator, full curve, poor fit]"
24,COc1cc(C(=O)OCCNC(=O)c2ccncc2)cc(OC)c1OC,"inconclusive: 11.2 µM [activator, single point]"
